The structures given here were assigned with low confidence; some may be wrong.
Key:
[1] = test system: activated Caspase 3; test: activated Caspase 3 at 48 hours (FIG. 7C); details: leads to cell death
Experimental: (§1) FIG. 7 depicts the decrease in STAT3 observed at 24 hours treatment with I-103 (A), the time-dependent inhibition of proliferation with I-103 (B), the increase in activated Caspase 3 at 48 hours that leads to cell death with I-103 treatment (C), and increase in subG1 cells observed with I-103 treatment (D).

By UniProt entry, the sequences of proteins in these tests, tags left out.
UniProt P40763, whole entry: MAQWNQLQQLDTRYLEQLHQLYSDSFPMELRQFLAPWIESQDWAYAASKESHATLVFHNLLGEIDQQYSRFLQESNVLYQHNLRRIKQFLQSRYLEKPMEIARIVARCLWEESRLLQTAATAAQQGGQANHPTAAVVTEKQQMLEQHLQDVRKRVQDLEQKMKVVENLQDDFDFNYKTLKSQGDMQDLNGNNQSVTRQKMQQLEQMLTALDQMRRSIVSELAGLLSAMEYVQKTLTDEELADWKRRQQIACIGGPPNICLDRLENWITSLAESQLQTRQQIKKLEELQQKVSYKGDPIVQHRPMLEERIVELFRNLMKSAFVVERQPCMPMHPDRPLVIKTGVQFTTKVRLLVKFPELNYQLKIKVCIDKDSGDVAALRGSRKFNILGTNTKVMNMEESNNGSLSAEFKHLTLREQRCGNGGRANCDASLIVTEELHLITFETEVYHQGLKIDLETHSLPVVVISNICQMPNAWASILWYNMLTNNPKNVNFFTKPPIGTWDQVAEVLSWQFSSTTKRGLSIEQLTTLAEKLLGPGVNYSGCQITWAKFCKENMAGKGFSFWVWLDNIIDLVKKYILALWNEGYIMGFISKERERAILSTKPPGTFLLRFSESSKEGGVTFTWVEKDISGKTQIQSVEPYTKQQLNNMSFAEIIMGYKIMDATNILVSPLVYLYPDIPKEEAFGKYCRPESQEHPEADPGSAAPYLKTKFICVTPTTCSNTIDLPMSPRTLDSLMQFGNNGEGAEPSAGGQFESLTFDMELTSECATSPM

[2] = target: T1, STAT3 (Homo sapiens, UniProt P40763); test: STAT3 level after 24 hours treatment (FIG. 7A)
Experimental: as §1

[3] = test system: MOLM-16 cells; test: CellTiter-Glo cell viability, MOLM-16; details: MOLM-16, FIG. 5B
Experimental: Compound-mediated viability effect on MOLM-16 and SU-HDL-1 cells was quantitatively determined using the CellTiter-Glo® Luminescent Cell Viability Assay kit from Promega (Catalog number G7572) following manufacturer's recommended procedures.
Day 0: 60 nL of compounds/DMSO were stamped to the cell plate as on the recommended platemap. Compound precipitation was observed. Cells were centrifuged at 800 rpm for 5 min, suspended with culture medium, and counted with Countess (Invitrogen). The cell density was adjusted to the recommend concentration. 30 μL of cell solution (2000 cells/well) was added to the assay plate according to the platemap. 30 μL of media was added to column 2 and column 23 as on the platemap. The final concentration of the compounds except for the reference compound Paclitaxel was from 10 μM, 3-fold dilution and 11 dose (Paclitaxel started at 500 nM). […]
Day 4: The assay plate was equilibrated to RT for ˜10 minutes. […] To determine cell viability, 30 μL of CellTiter Glo reagent was added to each well and the assay plate was centrifuged at 1000 rpm for 30 second, incubated at room temperature for 10 min, and analyzed by detecting the luminescence using a multimode plate reader (EnVision 2105, PerkinElmer). The data was then analyzed by software Prism 7.0 from GraphPad and the dose response curves were fit using a three-parameter logistic equation to calculate EC50.

[4] = time course of proliferation (FIG. 7B)
Experimental: as §1

[5] = target: T1, STAT3; test: Live cell degradation kinetics in A549 HiBiT cells; details: FIG. 3A, FIG. 21, tested form: diammonium
Experimental: 700,000 A549 HiBiT cells were seeded in 60 mm dish and rested overnight at 37° C. Cells were transfected with LgBiT vector comprising 6.5 μg plasmid DNA+19.5 μL FuGENE HD transfection reagent per 60 mm dish (scale up/down as necessary). Following 24 h post transfection, cells were trypsinized and seeded at 2,000 cells/well in 40 μL in a 384-well plate. Cells were not seeded in the 2 outermost columns/rows to avoid evaporation. Outer wells were filled with PBS. After allowing the cells to settle overnight, Endurazine 1:100 was added to the cells by first diluting 1:10 in media and further diluting 1:10 in 40 μL of cells by adding ˜4.4 μL of diluted Endurazine in plate #1. Cells were incubated at 37° C. for 2.5 h. Compound was added with Tecan HPd300 dispenser (final DMSO=0.1%) to both plates (10 point, 1:3 dilution; 30 μM top dose). Plate #1 luminescence was read at t=0, 30 min, 1h, 2h, 4h, 6h, 8h, 16h, 24 h, 48h. Plate was returned to incubator between reads.

[6] = test system: STAT3-mediated gene expression (SOCS3, PD-L1); test: RT-qPCR of STAT3, SOCS3 and PDL-1 mRNA levels in SU-DHL-1 cells; details: FIG. 15, tested form: diammonium
Experimental: FIG. 5. Includes graphical images and tables showing the results of RT-qPCR in SU-DHL-1 cells at 24 hours (A) with mRNA levels (% control) over I-103 concentration (nM)(x-axis) for STAT3, SOCS3, and PDL-1 genes and CellTiterGlo (CTG) cell viability at 4 days (B) with growth inhibition (% control) over I-103 concentration (nM)(x-axis) for MOLM-16 and SU-DHL-1 cell lines. Also shown are the results of MSD degradation DC50 (nM) in MOLM-16 and SU-DHL-1 cell lines at 24 hours.
FIG. 15 depicts dose response curves and IC50 results showing I-174 and I-94 repression of STAT3-mediated gene expression in of SOCS3 and PD-L1 in SU-DHL-1 cells.

Row | SMILES | activated Caspase 3 [1] | STAT3 level [2] | cell proliferation [3] | proliferation [4] | degradation of STAT3, live cell kinetics [5] | STAT3-mediated gene expression of SOCS3 and PD-L1 [6]
1 | Cn1c(=O)n(C2CCC(=O)NC2=O)c2ccc(CCCCCCC(=O)N3CC[C@H]4CC[C@@H](C(=O)N[C@@H](CCC(N)=O)C(=O)NC(c5ccccc5)c5ccccc5)N4C(=O)[C@@H](NC(=O)c4cc5cc(C(=O)P(=O)(O)O)ccc5[nH]4)C3)cc21 (stereo partly drawn) | increase in activated Caspase 3 | decrease in STAT3 | inhibits | time-dependent inhibition of proliferation |  | 
2 | Cc1ncsc1-c1ccc([C@H](C)NC(=O)[C@@H]2C[C@@H](O)CN2C(=O)[C@@H](NC(=O)CCCCc2ccc(CO[C@H](C)[C@H](CCC(N)=O)NC(=O)[C@@H]3Cc4cccc5c4N3C(=O)[C@@H](NC(=O)c3cc4cc(C(=O)P(=O)(O)O)ccc4[nH]3)CC5)cc2)C(C)(C)C)cc1 [Compound I-227] |  |  |  |  | rapid and potent degradation of STAT3 | repression of STAT3-mediated gene expression
